These are yes or no findings as the source states them, for the method shown. In cells and extracts the contact can be indirect. Some entries that bind do so weakly or less than the wild type.
T1: CDC50A (TMEM30A), mouse, endogenous (mouse (endogenous in mouse tissues)) (UniProt Q8VEK0)
T1 sequence: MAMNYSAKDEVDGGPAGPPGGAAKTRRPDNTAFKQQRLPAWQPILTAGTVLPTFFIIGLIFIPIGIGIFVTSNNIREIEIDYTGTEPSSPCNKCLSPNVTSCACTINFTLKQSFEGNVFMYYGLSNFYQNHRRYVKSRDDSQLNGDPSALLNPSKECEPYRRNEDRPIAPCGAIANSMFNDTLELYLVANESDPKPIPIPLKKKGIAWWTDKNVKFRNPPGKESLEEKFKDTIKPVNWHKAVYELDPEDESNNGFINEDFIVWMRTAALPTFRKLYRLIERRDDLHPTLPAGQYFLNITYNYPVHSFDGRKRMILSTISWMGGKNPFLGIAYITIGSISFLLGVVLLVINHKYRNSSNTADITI

B1: ATP8A1, mouse, endogenous (protein, UniProt P70704 1-1164)
chain: MPTMRRTVSEIRSRAEGYEKTDDVSEKTSLADQEEVRTIFINQPQLTKFCNNHVSTAKYNVITFLPRFLYSQFRRAANSFFLFIALLQQIPDVSPTGRYTTLVPLLFILAVAAIKEIIEDIKRHKADNAVNKKQTQVLRNGAWEIVHWEKVAVGEIVKVTNGEHLPADLLSLSSSEPQAMCYIETSNLDGETNLKIRQGLPATSDIKDIDSLMRISGRIECESPNRHLYDFVGNIRLDGHGTVPLGADQILLRGAQLRNTQWVHGIVVYTGHDTKLMQNSTSPPLKLSNVERITNVQILILFCILIAMSLVCSVGSAIWNRRHSGKDWYLHLHYGGASNFGLNFLTFIILFNNLIPISLLVTLEVVKFTQAYFINWDLDMHYEPTDTAAMARTSNLNEELGQVKYIFSDKTGTLTCNVMQFKKCTIAGVAYGHVPEPEDYGCSPDEWQSSQFGDEKTFNDPSLLDNLQNNHPTAPIICEFLTMMAVCHTAVPEREGDKIIYQAASPDEGALVRAAKQLNFVFTGRTPDSVIIDSLGQEERYELLNVLEFTSARKRMSVVVRTPSGKLRLYCKGADTVIYERLAETSKYKEITLKHLEQFATEGLRTLCFAVAEISESDFEEWRAVYHRASTSVQNRLLKLEESYELIEKNLQLLGATAIEDKLQDQVPETIETLMKADIKIWILTGDKQETAINIGHSCRLLKRNMGMIVINEGSLDGTRETLSRHCTTLGDALRKENDFALIIDGKTLKYALTFGVRQYFLDLALSCKAVICCRVSPLQKSEVVEMVKKQVKVITLAIGDGANDVSMIQTAHVGVGISGNEGLQAANSSDYSIAQFKYLKNLLMVHGAWNYNRVSKCILYCFYKNIVLYIIEIWFAFVNGFSGQILFERWCIGLYNVMFTAMPPLTLGIFERSCRKENMLKYPELYKTSQNALDFNTKVFWVHCLNGLFHSVILFWFPLKALQYGTVFGNGKTSDYLLLGNFVYTFVVITVCLKAGLETSYWTWFSHIAIWGSIALWVVFFGIYSSLWPAVPMAPDMSGEAAMLFSSGVFWVGLLSIPVASLLLDVLYKVIKRTAFKTLVDEVQELEAKSQDPGAVVLGKSLTERAQLLKNVFKKNHVNLYRSESLQQNLLHGYAFSQDENGIVSQSEVIRAYDTTKQRPDEW
B2: ATP11C, mouse, endogenous (protein, UniProt Q9QZW0 1-1129)
chain: MFRRTLNRLCAGEEKRVGTRTVFVGNHPISGTEPYIAQRFCDNRIVSSKYTLWNFLPKNLFEQFRRIANFYFLIIFLVQVTVDTPTSPVTSGLPLFFVITVTAIKQGYEDWLRHRADNEVNKSAVYIIENAKRVRKESEKIKVGDVVEVQANETFPCDLILLSSCTTDGTCYVTTASLDGESNCKTHYAVRDTIALCTAESIDNLRATIECEQPQPDLYRFVGRISIYSNSIEAVARSLGPENLLLKGATLKNTKKIYGVAVYTGMETKMALNYQGKSQKCSAVEKSINAFLIVYLFILLTKAAVCTTLKYVWQSSPYNDEPWYNQKTQKERETFQVLKMFTDFLSFMVLFNFIIPVSMYVTVEMQKFLGSFFISWDKDFFDEEINEGALVNTSDLNEELGQVDYVFTDKTGTLTENSMEFIECCIDGHKYKGTTQEVDGLSQTDGPLAYFDKADKNREALFLRALCLCHTVEMKTNDDVDGPVEGAGFTYISSSPDEIALVKGAKRFGFTFLGNQNGYIRVENQRKEIEEYELLHTLNFDSVRRRMSVIVRTQKGDILLFCKGADSSIFPRVHSHQIELTKDHVERNAMDGYRTLCVAFKEIPPDDFERINAQLVEAKMALQDREEKLEKVFDEIETNMNLIGATAVEDKLQDQAAETIEALHAAGLKVWVLTGDKMETAKSTCYACRLFQTNTELLELTTKTIEESERKEDRLHELLIEYRKKLLHEFPKSTRSLKKAWTEHQEYGLIIDGSTLSLILNSSQDCSSNNYKSIFLQICMKCTAVLCCRMAPLQKAQIVRMVKNLKGSPITLSIGDGANDVSMILESHVGIGIKGKEGRQAARNSDYSVPKFKHLKKLLLVHGHLYYVRIAHLVQYFFYKNLCFILPQFLYQFFCGFSQQPLYDAAYLTMYNICFTSLPILAYSLLEQHINIDTLTADPRLYMKITGNAMLQLGPFLHWTFLAAFEGTVFFFGTYFLFQTSSLEDNGKIYGNWTFGTIVFTVLVFTVTLKLALDTRFWTWINHFVIWGSLAFYVFFSFFWGGIIWPFLKQQRMYFVFAQMLCSVSTWLAIILLIFISLFPEILLIVVKNVRRRSARRNLSCRRASDSLSARPSVRPLLLRTFSDESNIL
B3: ATP8A2, mouse, endogenous (protein, UniProt P98200 1-1148)
chain: MSRATSVGDQLEAPARIIYLNQSHLNKFCDNRISTAKYSVLTFLPRFLYEQIRRAANAFFLFIALLQQIPDVSPTGRYTTLVPLVIILTIAGIKEIIEDFKRHKADNAVNKKKTIVLRNGMWHTIMWKEVAVGDIVKVLNGQYLPADMVLFSSSEPQGMCYVETANLDGETNLKIRQGLSHTTDMQTRDVLMKLSGRIECEGPNRHLYDFTGNLHLDGKSSVALGPDQILLRGTQLRNTQWVFGVVVYTGHDSKLMQNSTKAPLKRSNVEKVTNVQILVLFGILLVMALVSSVGALFWNGSHGGKSWYIKKMDTNSDNFGYNLLTFIILYNNLIPISLLVTLEVVKYTQALFINWDMDMYYIENDTPAMARTSNLNEELGQVKYLFSDKTGTLTCNIMNFKKCSIAGVTYGHFPELAREQSSDDFCRMTSCTNDSCDFNDPRLLKNIEDQHPTAPCIQEFLTLLAVCHTVVPEKDGDEIIYQASSPDEAALVKGAKKLGFVFTGRTPYSVIIEAMGQEQTFGILNVLEFSSDRKRMSVIVRLPSGQLRLYCKGADNVIFERLSKDSKYMEETLCHLEYFATEGLRTLCVAYADLSENEYEEWLKVYQEASIILKDRAQRLEECYEIIEKNLLLLGATAIEDRLQAGVPETIATLLKAEIKIWVLTGDKQETAINIGYSCRLVSQNMALILLKEDSLDATRAAITQHCTDLGNLLGKENDVALIIDGHTLKYALSFEVRRSFLDLALSCKAVICCRVSPLQKSEIVDVVKKRVKAITLAIGDGANDVGMIQTAHVGVGISGNEGMQATNNSDYAIAQFSYLEKLLLVHGAWSYNRVTKCILYCFYKNVVLYIIELWFAFVNGFSGQILFERWCIGLYNVIFTALPPFTLGIFERSCTQESMLRFPQLYRITQNAEGFNTKVFWGHCINALVHSLILFWVPMKALEHDTPVTSGHATDYLFVGNIVYTYVVVTVCLKAGLETTAWTKFSHLAVWGSMLIWLVFFGVYSTIWPTIPIAPDMKGQATMVLSSAYFWLGLFLVPTACLIEDVAWRAAKHTCKKTLLEEVQELETKSRVMGKAMLRDSNGKRMNERDRLIKRLSRKTPPTLFRTGSIQQCVSHGYAFSQEEHGAVTQEEIVRAYDTTKENSRKK
B4: ATP11A, mouse, endogenous (protein, UniProt P98197 1-1187)
chain: MDCSLLRTLVRRYCAGEENWVDSRTIYVGHKEPPPGAEAYIPQRYPDNRIVSSKYTFWNFIPKNLFEQFRRIANFYFLIIFLVQLIIDTPTSPVTSGLPLFFVITVTAIKQGYEDWLRHKADNAMNQCPVHFIQHGKLVRKQSRKLRVGDIVMVKEDETFPCDLIFLSSNRADGTCHVTTASLDGESSHKTHYAVQDTKGFHTEADVDSLHATIECEQPQPDLYKFVGRINVYNDLNDPVVRPLGSENLLLRGATLKNTEKIFGVAIYTGMETKMALNYQSKSQKRSAVEKSMNTFLIVYLCILVSKALINTVLKYVWQSEPFRDEPWYNEKTESERQRNLFLRAFTDFLAFMVLFNYIIPVSMYVTVEMQKFLGSYFITWDEDMFDEEMGEGPLVNTSDLNEELGQVEYIFTDKTGTLTENNMAFKECCIEGHVYVPHVICNGQVLPDSSGIDMIDSSPGVCGREREELFFRAICLCHTVQVKDDHCGDDVDGPQKSPDAKSCVYISSSPDEVALVEGVQRLGFTYLRLKDNYMEILNRENDIERFELLEVLTFDSVRRRMSVIVKSTTGEIYLFCKGADSSIFPRVIEGKVDQVRSRVERNAVEGLRTLCVAYKRLEPEQYEDACRLLQSAKVALQDREKKLAEAYEQIEKDLVLLGATAVEDRLQEKAADTIEALQKAGIKVWVLTGDKMETASATCYACKLFRRSTQLLELTTKKLEEQSLHDVLFDLSKTVLRCSGSMTRDSFSGLSTDMHDYGLIIDGAALSLIMKPREDGSSSGNYRELFLEICRNCSAVLCCRMAPLQKAQIVKLIKFSKEHPITLAIGDGANDVSMILEAHVGIGVIGKEGRQAARNSDYAIPKFKHLKKMLLVHGHFYYIRISELVQYFFYKNVCFIFPQFLYQFFCGFSQQTLYDTAYLTLYNISFTSLPILLYSLMEQHVGIDVLKRDPTLYRDIAKNALLRWRVFIYWTFLGVFDALVFFFGAYFIFENTTVTINGQMFGNWTFGTLVFTVMVLTVTLKLALDTHYWTWINHFVIWGSLLFYIAFSLLWGGVIWPFLSYQRMYYVFISMLSSGPAWLGIILLVTVGLLPDVLKKVLCRQLWPTATERTQNIQHQDSISEFTPLASLPSWGAQGSRLLAAQCSSPSGRVVCSRWESEECPVLPLHPGLPHKARYGCCRSSLEMPT

Biological target: T1, CDC50A (TMEM30A), mouse, endogenous (mouse (endogenous in mouse tissues))
Test: co-IP; CHAPS extracts of mouse retina, brain, kidney, testes, liver on Cdc50-7F4-Sepharose, eluted with 7F4 peptide; western blots with antibodies to ATP8A2, ATP8A1, ATP11C, ATP11A and CDC50A

binding, binds:
B1
B2
B3
B4

From PMC6050252
